Results are given in words; binding and its absence hold for the method and conditions named. Some entries that bind do so weakly or less than the wild type.

The target of this assay is hGARP mut II / hTGF-β1 complex on the cell surface. The assay is described as follows: FACS, 293T, HA-tagged mutant + hTGFB1 [cont.) B]. (Flow cytometry measures light scatter and fluorescence of single cells or particles in a stream.)

B1: LHG-10 (antibody, human IgG1, V domains shown)
VH: EVQLVQPGAELRNSGASVKVSCKASGYRFTSYYIDWVRQAPGQGLEWMGRIDPEDGGTKYAQKFQGRVTFTADTSTSTAYVELSSLRSEDTAVYYCARNEWETVVVGDLMYEYEYWGQGTQVTVSS
VL: DIQMTQSPTSLSASLGDRVTITCQASQSISSYLAWYQQKPGQAPKLLIYGASRLQTGVPSRFSGSGSGTSFTLTISGLEAEDAGTYYCQQYDSLPVTFGQGTKVELK
B1: the binding result is listed as “binds”.
